Publication PMC7819943, “Rice protein-binding microarrays: a tool to detect cis-acting elements near promoter regions in rice”
The list shows a part of the results.

Protein sequences, listed by entry. Tags and fused reporters are not part of them.
UniProt Q0JBA9, entry or part of it: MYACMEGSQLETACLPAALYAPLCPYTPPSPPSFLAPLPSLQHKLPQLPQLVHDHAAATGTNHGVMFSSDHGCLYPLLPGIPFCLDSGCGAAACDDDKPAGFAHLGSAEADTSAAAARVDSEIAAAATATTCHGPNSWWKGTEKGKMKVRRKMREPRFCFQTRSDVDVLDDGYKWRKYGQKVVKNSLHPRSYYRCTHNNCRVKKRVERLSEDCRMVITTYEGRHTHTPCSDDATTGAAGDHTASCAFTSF

What follows are sequences tested against OsWRKY34 (Oryza sativa, UniProt Q0JBA9 1-250) (assay: protein-binding microarray (RPBM); PBS, 2% BSA, 51.3 ng/ul salmon testes DNA, 50 uM zinc acetate, 200 nM TF, 25 C, 1 h; high values mean tight binding). Details: protein: recombinant; tags: N-terminal polyhistidine and DsRed monomer fusion (pET32a); label: CyDye5-dUTP incorporated in the synthesized complementary strand; 3' TTTTT single-stranded linker to array surface; dsDNA, one strand shown.
Procedure, shortened: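 In PBS with 2% BSA, salmon testes DNA and 50 µM zinc acetate, 200 nM protein was incubated on a custom Agilent array at 25 °C for 1 h and then washed off. The array had been made double-stranded by primer extension with Cy5-dUTP and blocked with 2% BSA. The proteins were transcription factors fused N-terminally to polyhistidine and DsRed, expressed in E. coli BL21-CodonPlus and purified on Ni–NTA. The binding signal is per-feature fluorescence intensity (arbitrary units) from an Axon 4000B scanner.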

Sequence | binding signal
CCCTCCCGATTTTTCACCTTTTGAAAAACTTATTATACATCGGAGTCACCTAGTGCAG | 8850 fluorescence intensity (a.u.)
GGGGAGGGGAGGGAAGACCCGGGATTAGGCGAGGAGAGGGCGGAGTCACCTAGTGCAG | 9660 fluorescence intensity (a.u.)
CTCCACAGTGTATTCTACCCGCTACTTGCATCAACTAATTCGGAGTCACCTAGTGCAG | 9110 fluorescence intensity (a.u.)
TGCCTCTTTTTTTTTTTCTCAACACGTTACAGTTTCCTACCGGAGTCACCTAGTGCAG | 10500 fluorescence intensity (a.u.)
TCAGTCCTCGGCCACCTCCCTCACTTGTCCAACCTTGTCTCGGAGTCACCTAGTGCAG | 13100 fluorescence intensity (a.u.)
AGTACTGCTTCATCTAGCTCTCTCTAGTAGCTAGCTCTATCGGAGTCACCTAGTGCAG | 8800 fluorescence intensity (a.u.)
ACCCATGATATATTAACTCTGTAGCTCACTTTTTTCTCTCCGGAGTCACCTAGTGCAG | 10700 fluorescence intensity (a.u.)
TTTCTATGGTTATGTCTAATTCACCCTTATATTTATTTTTCGGAGTCACCTAGTGCAG | 10200 fluorescence intensity (a.u.)
CATTTGTCCTGTTAACTTAACCATTGATATTTTCTTTTTACGGAGTCACCTAGTGCAG | 11700 fluorescence intensity (a.u.)
TGTGTATTTTGGTTTGCTTTGTGTATTTTGGACCCAAAAACGGAGTCACCTAGTGCAG | 10500 fluorescence intensity (a.u.)
GATTTCCTTTTGATTTGTGGGGTTGATTTAATTCTGTATCCGGAGTCACCTAGTGCAG | 15700 fluorescence intensity (a.u.)
TATCATTATGTCCGAACGGTATACCTTCTTGTATCATTTCCGGAGTCACCTAGTGCAG | 11200 fluorescence intensity (a.u.)
GTCTGCTGTCCATTGACCGGTTGACCGCCCTGACTGCCCCCGGAGTCACCTAGTGCAG | 9770 fluorescence intensity (a.u.)
GTTAGTTGCGTTTGCATGCATGAGTGACACTACATACGCCCGGAGTCACCTAGTGCAG | 8040 fluorescence intensity (a.u.)
GCCGACTAGTCAACCATCAGGTCAACCCAAAGCATTTCCCCGGAGTCACCTAGTGCAG | 8150 fluorescence intensity (a.u.)
AAGCTTTGTCACTGGCTCAACATGACGATATATCGGTTAACGGAGTCACCTAGTGCAG | 8130 fluorescence intensity (a.u.)
TCCTCACGCTTTCTCGGTTCCATTTGGCTTTATTAATAATCGGAGTCACCTAGTGCAG | 11000 fluorescence intensity (a.u.)
GTATTCTAATTCTTTTTAACTTTGTATTGGTACGTGTGAACGGAGTCACCTAGTGCAG | 8320 fluorescence intensity (a.u.)
GATGCGGGTGAGGTGCCGCGCTGTGGGGAGAGAGGGTGGGCGGAGTCACCTAGTGCAG | 8560 fluorescence intensity (a.u.)
TCCCTCTGCGACTCTGCCAGTGCATTGCCTATCTCTATATCGGAGTCACCTAGTGCAG | 12300 fluorescence intensity (a.u.)
ACTAACTCTTTCTTACCAGTAAATTCTTGGGGTAATTGTACGGAGTCACCTAGTGCAG | 8910 fluorescence intensity (a.u.)
TTTTCTTCTCACTTCACTTACATGTGGGACTCACATATTACGGAGTCACCTAGTGCAG | 8360 fluorescence intensity (a.u.)
AATTTTCACGCAACTTTCACCGCCTATTTCCTTCTTTTACCGGAGTCACCTAGTGCAG | 9520 fluorescence intensity (a.u.)
TATATTTTGTATTCTTATTGGGTGAATTCCTCCCAACCTACGGAGTCACCTAGTGCAG | 8720 fluorescence intensity (a.u.)
CCTTGCACCTCTCTCACACCCACTTGAGCTTTGTGTTCATCGGAGTCACCTAGTGCAG | 11700 fluorescence intensity (a.u.)
GTTGTACAGTGCCTTACCTTTTTCTTAAGAAAACACTTCACGGAGTCACCTAGTGCAG | 10200 fluorescence intensity (a.u.)
GCAGCACCGCTTGCCAGCTCGTAATTGCGGCCCATTAACCCGGAGTCACCTAGTGCAG | 9040 fluorescence intensity (a.u.)

Single entries from the entries so far.
For binding signal, AATTTTCACGCAACTTTCACCGCCTATTTCCTTCTTTTACCGGAGTCACCTAGTGCAG reads 9520 fluorescence intensity (a.u.)
For binding signal, AAGCTTTGTCACTGGCTCAACATGACGATATATCGGTTAACGGAGTCACCTAGTGCAG reads 8130 fluorescence intensity (a.u.)

Following part:

Sequence | binding signal
GAAATTCGTTGTGAACAGGCTAGGATCATATGTCCTAATTCGGAGTCACCTAGTGCAG | 8480 fluorescence intensity (a.u.)
TCAGGGGCGGGCCCACTATTGATTCAAGGGTATTCAGACGCGGAGTCACCTAGTGCAG | 8870 fluorescence intensity (a.u.)
CGAGCTCACGAGGCGGGGCAGGCGGCGGCGGGCGGCGGCGCGGAGTCACCTAGTGCAG | 8260 fluorescence intensity (a.u.)
TGATTGCCTTCTCGATTTTGTTTGTCATTGCGTCTTTGCACGGAGTCACCTAGTGCAG | 8190 fluorescence intensity (a.u.)
GCTTGTGATAGAATCAATTTACCCTTGCATTTATGGCTAACGGAGTCACCTAGTGCAG | 9970 fluorescence intensity (a.u.)
GGCACTACCACTTGTACTAGCTGGAGTAGTACGGACTTACCGGAGTCACCTAGTGCAG | 8120 fluorescence intensity (a.u.)
TTCTCCTCCTCCGTCTCGAGCGAGCTCTCTCCTTCCTTGTCGGAGTCACCTAGTGCAG | 8380 fluorescence intensity (a.u.)
CACACCTGTCACCGTCCCATCCCCACCTCGGCCACAGAGACGGAGTCACCTAGTGCAG | 8460 fluorescence intensity (a.u.)
CACCATCTCACCATCTCACTACCCACACTGTTCCATGGGGCGGAGTCACCTAGTGCAG | 8340 fluorescence intensity (a.u.)
TCTGAAACTCTCTGCTCTGTCTGTCCGTGCATCTTCTTCCCGGAGTCACCTAGTGCAG | 16300 fluorescence intensity (a.u.)
CGTGGTTACGTGAAATTTACTACTATCTCTGTCTTAAAATCGGAGTCACCTAGTGCAG | 9220 fluorescence intensity (a.u.)
GTCGTCATCGTCGTCGTTGTCTGCCATTGCCCCGCTCTGCCGGAGTCACCTAGTGCAG | 9970 fluorescence intensity (a.u.)
CACAACCACATTGGTCCCTCGGATTTCCCTCCTCTCTTCTCGGAGTCACCTAGTGCAG | 11800 fluorescence intensity (a.u.)
GATGACGACGGCGATGACGGCGGGGCGGTTTGGAGCGGGGCGGAGTCACCTAGTGCAG | 13200 fluorescence intensity (a.u.)
AATTCTATGCCTCGATACATTTTTGGTGTTTATTATGGTTCGGAGTCACCTAGTGCAG | 8460 fluorescence intensity (a.u.)
CCGCCGGCCGCTTCCACGCCTCCGTCGACCTCGCCAAGTCCGGAGTCACCTAGTGCAG | 9580 fluorescence intensity (a.u.)
TCCGGGTGAAATCTTGATTCTTCTTCCTTAAAATTGTATTCGGAGTCACCTAGTGCAG | 8240 fluorescence intensity (a.u.)
GGAATAGAGTTTATTTGAGAAGGGTGGGAATGGATTTAAACGGAGTCACCTAGTGCAG | 8470 fluorescence intensity (a.u.)
TAATTAGTAGGAAACACGAAAATCAAACTAAAAACTAGAACGGAGTCACCTAGTGCAG | 13400 fluorescence intensity (a.u.)
AGACTTGGTCACTGATATGCGAGCCCACTACTTCTAGACCCGGAGTCACCTAGTGCAG | 9470 fluorescence intensity (a.u.)
TTTGGATGGAGGGTTTTGGGTTGATAGGACATGGCGGCCTCGGAGTCACCTAGTGCAG | 11100 fluorescence intensity (a.u.)
ACATAACCCTTGTTGATGGGCGGCATCTTCTCGTTCATTCCGGAGTCACCTAGTGCAG | 11600 fluorescence intensity (a.u.)
GGCCCTTATCGGCGCCGTTGACTCCTTTCGGCCAGTCGGCCGGAGTCACCTAGTGCAG | 10500 fluorescence intensity (a.u.)
ATCACCTTCCGCTGGCTCGCCACCCGCCCCATGCGCCGCCCGGAGTCACCTAGTGCAG | 11300 fluorescence intensity (a.u.)
GTCTATATCTATACTTCATTGTCAACACCGCCGCCACTGCCGGAGTCACCTAGTGCAG | 8220 fluorescence intensity (a.u.)
GGTGCATATTTGATCTCGCTTTCGCAACCGTTCGATTGGTCGGAGTCACCTAGTGCAG | 8180 fluorescence intensity (a.u.)
CCGCCCATGCCATGGCTCCCTGACCTTTCCGCGGCTCAACCGGAGTCACCTAGTGCAG | 11900 fluorescence intensity (a.u.)
